Data as given in PubChem BioAssay AID504764 (Drosophila RNAi Screening Center, 2011).
The deposit covers about 22,000 reagents; shown is an unselected part of those that have a named target and a result. Of all reagents, 403 (1.9%) are marked active. 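Unnormalised raw counts per well; ratio z-scores behind the hit calls and whether each hit raises or lowers signal are not deposited.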 The numbers tell different reagents against one gene apart. Not stated in the record: the amount of reagent.

Screen: 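Knock-downs that raise or lower a Notch target reporter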 (primary screen)
Cells: Drosophila Kc167 cells
Knock-down reagent: long dsRNA against Drosophila genes
Timing: about 5 days (4 days dsRNA, then 24 h after transfection)
Conditions: transfection of constitutively active membrane-tethered Notch lacking the extracellular domain, read 24 h later
Detection: 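Light from a Notch-responsive E(spl)m3 luciferase reporter under active Notch, with control-promoter and no-Notch reporter wells to normalise; raw counts from paired wells a and b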
Direction: induced reporter light, run 1, well a and induced reporter light, run 1, well b: higher = more light from the Notch target reporter with active Notch; control promoter light, run 1, well a and control promoter light, run 1, well b: higher = more light from the viral control promoter (cell number, transfection, viability); uninduced reporter light, run 1, well a: higher = more light from the Notch target reporter without active Notch
Call rule: 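Hit if the duplicate-averaged log2 ratio of induced to control-promoter light gives a plate-wise z beyond ±2, or induced to uninduced beyond ±1.8; weak-control or discordant-duplicate wells dropped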
Calls: active = modifier hit (raised or lowered Notch signal); inactive = not a hit

predicted target | reagent | induced reporter light, run 1, well a | induced reporter light, run 1, well b | control promoter light, run 1, well a | control promoter light, run 1, well b | uninduced reporter light, run 1, well a | Call
CG33784 | 1 | 1.78e5 | 1.43e5 | 2.00e5 | 1.10e5 | 11438 | inactive
5-HT1B | 1 | 1.17e5 | 98240 | 99315 | 1.36e5 | 8020 | inactive
5-HT1B | 2 | 1.04e5 | 1.20e5 | 1.70e5 | 1.29e5 | 8605 | inactive
CG14854 | 1 | 2.58e5 | 2.54e5 | 2.20e5 | 2.44e5 | 18265 | inactive
Ns3 | 1 | 1.65e5 | 2.10e5 | 2.50e5 | 2.75e5 | 11860 | inactive
Nost | 1 | 1.23e5 | 1.24e5 | 1.71e5 | 1.69e5 | 10465 | inactive
Nost | 2 | 1.25e5 | 1.38e5 | 2.07e5 | 1.65e5 | 9970 | inactive
Mgat3 | 1 | 87100 | 87610 | 90995 | 1.08e5 | 6910 | inactive
COX1 (retired record) | 1 | 82530 | 1.16e5 | 1.03e5 | 1.10e5 | 9980 | inactive
Gbeta76C | 1 | 1.64e5 | 1.83e5 | 1.26e5 | 1.45e5 | 12475 | inactive
CG34288 | 1 | 98180 | 82720 | 1.31e5 | 1.20e5 | 12525 | inactive
Rpn3 | 1 | 9860 | 11835 | 9970 | 13130 | 880 | inactive
CG34012 | 1 | 1.39e5 | 1.63e5 | 1.49e5 | 1.62e5 | 10820 | inactive
CG12061 | 1 | 86190 | 87010 | 1.28e5 | 1.34e5 | 11615 | inactive
lectin-29Ca | 1 | 1.45e5 | 1.91e5 | 85155 | 1.25e5 | 19365 | inactive
CG13408 | 1 | 45630 | 42230 | 65985 | 59885 | 8090 | inactive
CG13408 | 2 | 1.75e5 | 1.37e5 | 1.93e5 | 2.03e5 | 10300 | inactive
ppk29 | 1 | 2.16e5 | 2.02e5 | 1.84e5 | 1.76e5 | 15870 | inactive
mldr | 1 | 1.48e5 | 1.42e5 | 2.64e5 | 1.97e5 | 11300 | inactive
CG7182 | 1 | 99680 | 1.01e5 | 78570 | 43810 | 12195 | inactive
kek2 | 1 | 1.18e5 | 1.55e5 | 75875 | 1.09e5 | 17180 | inactive
yrt | 1 | 1.44e5 | 1.40e5 | 1.06e5 | 1.04e5 | 10075 | inactive
Cand1 | 1 | 1.41e5 | 1.52e5 | 1.28e5 | 1.43e5 | 13978 | inactive
CG8245 | 1 | 1.21e5 | 1.29e5 | 1.42e5 | 1.41e5 | 9695 | inactive
Targ3 | 1 | 2.12e5 | 2.11e5 | 3.86e5 | 2.84e5 | 19842 | inactive
CG9902 | 1 | 54370 | 39815 | 60305 | 42405 | 6640 | inactive
Lon | 1 | 1.24e5 | 1.94e5 | 93885 | 1.02e5 | 9925 | inactive
CG13599 | 1 | 1.61e5 | 1.86e5 | 2.27e5 | 1.92e5 | 13665 | inactive
Cp15 | 1 | 2.12e5 | 1.67e5 | 1.95e5 | 1.85e5 | 9255 | inactive
bur | 1 | 1.67e5 | 1.92e5 | 1.65e5 | 1.77e5 | 13940 | inactive
Cubn | 1 | 2.13e5 | 1.68e5 | 2.36e5 | 2.12e5 | 13370 | inactive
Dh31 | 1 | 1.69e5 | 1.96e5 | 1.02e5 | 1.27e5 | 20068 | inactive
CG11437 | 1 | 95155 | 98620 | 1.65e5 | 1.25e5 | 11270 | inactive
CG15099 | 1 | 1.01e5 | 82760 | 1.60e5 | 2.17e5 | 9242 | inactive
Spn47C | 1 | 1.45e5 | 1.40e5 | 1.30e5 | 1.42e5 | 13842 | inactive
THADA | 1 | 1.05e5 | 1.22e5 | 1.05e5 | 42785 | 7430 | inactive
PpD6 | 1 | 1.61e5 | 1.52e5 | 1.80e5 | 1.62e5 | 10425 | inactive
CG9316 | 1 | 48020 | 45840 | 55245 | 32830 | 2378 | inactive
Gnf1 | 1 | 1.24e5 | 90770 | 90405 | 89145 | 8745 | inactive
Aasdh | 1 | 1.70e5 | 1.73e5 | 90835 | 1.31e5 | 23325 | inactive
CG15141 | 1 | 2.91e5 | 2.22e5 | 2.17e5 | 2.48e5 | 19325 | inactive
CG15141 | 2 | 1.42e5 | 1.48e5 | 1.43e5 | 1.40e5 | 10005 | inactive
CG32262 | 1 | 1.59e5 | 1.52e5 | 91245 | 47915 | 12260 | inactive
Ilp4 | 1 | 1.56e5 | 1.51e5 | 1.92e5 | 1.56e5 | 7845 | inactive
CG3655 | 1 | 68265 | 69695 | 93050 | 81740 | 6715 | inactive
CG3655 | 2 | 1.24e5 | 1.30e5 | 1.97e5 | 1.65e5 | 7555 | inactive
CG3655 | 3 | 84800 | 1.09e5 | 1.35e5 | 1.57e5 | 6565 | inactive
Pfdn1 | 1 | 87870 | 56270 | 82330 | 79645 | 4860 | inactive
CG6428 | 1 | 1.44e5 | 1.28e5 | 2.44e5 | 2.50e5 | 10660 | inactive
Apc2 | 1 | 33845 | 41360 | 35960 | 41850 | 3165 | inactive

Laid out differently: 7 of the entries above.
{"predicted target":"CG13408","reagent":2,"induced reporter light, run 1, well a":1.75e5,"induced reporter light, run 1, well b":1.37e5,"control promoter light, run 1, well a":1.93e5,"control promoter light, run 1, well b":2.03e5,"uninduced reporter light, run 1, well a":10300,"Call":"inactive"}
{"predicted target":"ppk29","reagent":1,"induced reporter light, run 1, well a":2.16e5,"induced reporter light, run 1, well b":2.02e5,"control promoter light, run 1, well a":1.84e5,"control promoter light, run 1, well b":1.76e5,"uninduced reporter light, run 1, well a":15870,"Call":"inactive"}
{"predicted target":"mldr","reagent":1,"induced reporter light, run 1, well a":1.48e5,"induced reporter light, run 1, well b":1.42e5,"control promoter light, run 1, well a":2.64e5,"control promoter light, run 1, well b":1.97e5,"uninduced reporter light, run 1, well a":11300,"Call":"inactive"}
{"predicted target":"CG7182","reagent":1,"induced reporter light, run 1, well a":99680,"induced reporter light, run 1, well b":1.01e5,"control promoter light, run 1, well a":78570,"control promoter light, run 1, well b":43810,"uninduced reporter light, run 1, well a":12195,"Call":"inactive"}
{"predicted target":"kek2","reagent":1,"induced reporter light, run 1, well a":1.18e5,"induced reporter light, run 1, well b":1.55e5,"control promoter light, run 1, well a":75875,"control promoter light, run 1, well b":1.09e5,"uninduced reporter light, run 1, well a":17180,"Call":"inactive"}
{"predicted target":"yrt","reagent":1,"induced reporter light, run 1, well a":1.44e5,"induced reporter light, run 1, well b":1.40e5,"control promoter light, run 1, well a":1.06e5,"control promoter light, run 1, well b":1.04e5,"uninduced reporter light, run 1, well a":10075,"Call":"inactive"}
{"predicted target":"Cand1","reagent":1,"induced reporter light, run 1, well a":1.41e5,"induced reporter light, run 1, well b":1.52e5,"control promoter light, run 1, well a":1.28e5,"control promoter light, run 1, well b":1.43e5,"uninduced reporter light, run 1, well a":13978,"Call":"inactive"}
